These results are taken from paper PMC7819943, “Rice protein-binding microarrays: a tool to detect cis-acting elements near promoter regions in rice”.

Some of the results follow.

In the assay the target is T1, OsSMF1 (Oryza sativa, UniProt Q6ZLB0 1-436).
T1 sequence: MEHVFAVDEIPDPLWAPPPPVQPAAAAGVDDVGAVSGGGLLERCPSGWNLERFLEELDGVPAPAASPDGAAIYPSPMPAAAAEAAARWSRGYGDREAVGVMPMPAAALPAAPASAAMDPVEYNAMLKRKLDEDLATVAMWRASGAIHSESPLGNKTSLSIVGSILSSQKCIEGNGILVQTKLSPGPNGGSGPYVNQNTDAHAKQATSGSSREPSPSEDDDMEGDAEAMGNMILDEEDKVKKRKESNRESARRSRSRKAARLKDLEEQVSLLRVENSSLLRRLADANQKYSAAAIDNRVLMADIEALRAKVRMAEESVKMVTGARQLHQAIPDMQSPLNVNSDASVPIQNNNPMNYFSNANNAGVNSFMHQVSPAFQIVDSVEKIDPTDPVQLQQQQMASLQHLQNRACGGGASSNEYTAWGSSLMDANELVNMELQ
As to the kind of experiment: protein-binding microarray (RPBM); PBS, 2% BSA, 51.3 ng/ul salmon testes DNA, 50 uM zinc acetate, 200 nM TF, 25 C, 1 h; high values mean tight binding. The settings on record: protein: recombinant; tags: N-terminal polyhistidine and DsRed monomer fusion (pET32a); chain copies: 2; label: CyDye5-dUTP incorporated in the synthesized complementary strand; 3' TTTTT single-stranded linker to array surface; dsDNA, one strand shown. An outline of the steps: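 Using Ni–NTA, transcription factors fused N-terminally to polyhistidine and DsRed were purified after expression in E. coli BL21-CodonPlus. These were incubated at 200 nM with a blocked, double-stranded custom Agilent array for 1 h at 25 °C in a buffer containing 50 µM zinc acetate, and the array was washed. The binding signal is per-feature fluorescence intensity (arbitrary units) on an Axon 4000B scanner.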
In the case of “CAGTTCCCATCAACATCGTCCGTTTGATCTCGCGGCAGGGCGGAGTCACCTAGTGCAG”, the binding signal is 21500 fluorescence intensity (a.u.).

For “CTCCATCTTTGTTTATCCTTAAGCACCTAATTCATCATGTCGGAGTCACCTAGTGCAG”, the binding signal was 19100 fluorescence intensity (a.u.).

Turning to “GGCCTCGACCTCCTCTGCCGTGACAAGGCCCTGCTGCCACCGGAGTCACCTAGTGCAG”, the binding signal was 3470 fluorescence intensity (a.u.).

Turning to “TTCCACAGTGCGTGCTGCCATATGTAATCTAAATTGTCATCGGAGTCACCTAGTGCAG”, the binding signal was 3340 fluorescence intensity (a.u.).

On to “ACTACTAACGTGTCACATCTTAGTCTACCCTCTCCTCTGACGGAGTCACCTAGTGCAG”, for which the binding signal was 6840 fluorescence intensity (a.u.).

“GGCCCACTCGGCCAGCTTCCGCTGCGGCCCTGCCTGCCTGCGGAGTCACCTAGTGCAG”: the binding signal was 3280 fluorescence intensity (a.u.).

On to “GTTCCAACTTCCAAGCAAAGTACACGTGTAGTTCCATATTCGGAGTCACCTAGTGCAG”, for which the binding signal was 9640 fluorescence intensity (a.u.).

For “CGCCGCGTGGTTCTTCGTTTCGTTTGTCTCGCCATCTCTTCGGAGTCACCTAGTGCAG”, the binding signal was 3470 fluorescence intensity (a.u.).

Turning to “ATGAATCCTGACGCATTGGTTTCAGGTGATTACACCTTTTCGGAGTCACCTAGTGCAG”, the binding signal was 4510 fluorescence intensity (a.u.).

For “TAGTGGGGAGGCGGTGGTGCTGCGGGGAGGGAGGGAGCACCGGAGTCACCTAGTGCAG”, the binding signal was 3800 fluorescence intensity (a.u.).

As for “CTCCTCCATTGCCAGTTGCTACTCATCCTCATCCTCTCCACGGAGTCACCTAGTGCAG”, the binding signal is 22600 fluorescence intensity (a.u.).

Regarding “GGGAGCGGCGGAGGAGGAGGGCGCGGCGGCGGTGGGGTGGCGGAGTCACCTAGTGCAG”, the binding signal was 4920 fluorescence intensity (a.u.).

For the sequence “ATTGCTGTATGCGTCCATCTGCAAGCAATTCAAAACCAGCCGGAGTCACCTAGTGCAG”, the binding signal was 26900 fluorescence intensity (a.u.).

With “CCTTGATGATTGAACCAGTCAGCCCCAACATCTCTATAAACGGAGTCACCTAGTGCAG”, the binding signal was 3260 fluorescence intensity (a.u.).

“TGGCGACCTCAGCTTTGCATCATCACTACTTCAGTCCAGCCGGAGTCACCTAGTGCAG”: the binding signal is 4200 fluorescence intensity (a.u.).

On to “CCGTCTTCTCTGCCGATCGATGACGATGAGCTTCTCCTCCCGGAGTCACCTAGTGCAG”, for which the binding signal was 4480 fluorescence intensity (a.u.).

Consider “AATGTGCTATACAATTTTAATATAGAACATGTCACCATCCCGGAGTCACCTAGTGCAG”, for which the binding signal is 3660 fluorescence intensity (a.u.).

For “GTTGATCAAATTCATACGTGTGCATAGCAATTTCCCAAATCGGAGTCACCTAGTGCAG”, the binding signal was 5100 fluorescence intensity (a.u.).

Take “GTGACAGCCAGCCAGCCACTGCGTCACATCGCTTGTGAGTCGGAGTCACCTAGTGCAG”: the binding signal was 3300 fluorescence intensity (a.u.).

Regarding “CCTTTTGTCCATCTATACATGTAGGGAGGTGAGTGAAGTGCGGAGTCACCTAGTGCAG”, the binding signal is 4460 fluorescence intensity (a.u.).

Take “CCACATTCCGCCAGCTGGCCAGCTCGAGCCACCTCATCAGCGGAGTCACCTAGTGCAG”: the binding signal was 5650 fluorescence intensity (a.u.).

For the sequence “TCTCCTCCCTCGTTTCTCCTGACACGCTCTCATCCTACAACGGAGTCACCTAGTGCAG”, the binding signal is 3370 fluorescence intensity (a.u.).

Turning to “TTTTAAAGAAAGAATTAGATAATATTGCTGACGAGGACTGCGGAGTCACCTAGTGCAG”, the binding signal is 10100 fluorescence intensity (a.u.).

With “TCGAGGTATCACGTACATATATATCTCCTACCTTTCTCTACGGAGTCACCTAGTGCAG”, the binding signal is 3200 fluorescence intensity (a.u.).

Consider “CGAGCTGATCCCCGCGGATGTAGCGACGGCGTGGACCTCCCGGAGTCACCTAGTGCAG”, for which the binding signal is 3780 fluorescence intensity (a.u.).

With “TTCCGTCGTGGTCATCATTCCAGTGAACTGTTTAGCTGTTCGGAGTCACCTAGTGCAG”, the binding signal is 4370 fluorescence intensity (a.u.).

Turning to “CCTGGACCATATATATACGATGAAGGCCCATTTAGTAGGACGGAGTCACCTAGTGCAG”, the binding signal is 22200 fluorescence intensity (a.u.).

For the sequence “CTCCAATGACTAAGCTGAGTTCATTCCAGCTAGTTCCCAACGGAGTCACCTAGTGCAG”, the binding signal was 4240 fluorescence intensity (a.u.).

Consider “ACATGTGGGCCCTACATCCCAGCCGGTCCACGTCGGTTCACGGAGTCACCTAGTGCAG”, for which the binding signal is 8510 fluorescence intensity (a.u.).

As to “GTGTAAATATGAAATACATTCTCACAAAATCTTTTGTTCACGGAGTCACCTAGTGCAG”, the binding signal was 16300 fluorescence intensity (a.u.).

Regarding “AACAAATAAGAGAGAGAAAGAACATCAAATCTCTCTTTCTCGGAGTCACCTAGTGCAG”, the binding signal is 16900 fluorescence intensity (a.u.).

As for “GAGTGCCATGTATGCATCCACGTAGGATCAAAACTGCCCTCGGAGTCACCTAGTGCAG”, the binding signal is 17000 fluorescence intensity (a.u.).

With “ACTTGTTATCTGGCCTCTCCGCCATGTGACCCATGGAAATCGGAGTCACCTAGTGCAG”, the binding signal was 3250 fluorescence intensity (a.u.).

Take “AAGGCGGAGGAGGAGTTGTGGCCGACTGACTTTGGCCCGTCGGAGTCACCTAGTGCAG”: the binding signal was 3150 fluorescence intensity (a.u.).

For the sequence “AACAGTTAGTGATCGCTAGATCCAGCAATAAACAACCCAGCGGAGTCACCTAGTGCAG”, the binding signal is 33100 fluorescence intensity (a.u.).

Consider “AAAATTTAAAATTGGGTACATCAACACAGGCAAACCATATCGGAGTCACCTAGTGCAG”, for which the binding signal is 3200 fluorescence intensity (a.u.).

For “AGTCAATCGTGCCAGTCTGACTCGAATCGTCGGTCGTTCTCGGAGTCACCTAGTGCAG”, the binding signal was 3590 fluorescence intensity (a.u.).

For the sequence “GGAATTGTGTTCTGTCTATTGATATGAGTGACTAATTGACCGGAGTCACCTAGTGCAG”, the binding signal is 3620 fluorescence intensity (a.u.).

Turning to “GTCTTGCTGCTGACGCCAATGCGTTCCGGGAATTCTTCAACGGAGTCACCTAGTGCAG”, the binding signal was 4950 fluorescence intensity (a.u.).

Take “AATTTTAAGTGTGCTTCGTCACTGGTTGTGAGCGAGTATTCGGAGTCACCTAGTGCAG”: the binding signal is 6110 fluorescence intensity (a.u.).

For the sequence “TCGATGAAACTGCTACCAAATAAACACGTTGGCATGTGATCGGAGTCACCTAGTGCAG”, the binding signal was 4500 fluorescence intensity (a.u.).

With “CCTTCCACATATGCTCATTCGAAAGTAACAAATTCACTCGCGGAGTCACCTAGTGCAG”, the binding signal was 3190 fluorescence intensity (a.u.).
